Literature values, collected in US20230158080A1 ([…], LLC, priority 2021, published 2023).
At least one structure is not confirmed: it was looked up by name or label, or the drawing left a doubt.

Test system: EPC

CC(C)C(=O)Nc1ccc([N+](=O)[O-])c(C(F)(F)F)c1 [flutamide]
effects of R1881 on EPC after flutamide pretreatment: abolished
